Data: patent US6353015B1, “Method of treating neurodegenerative disorders” (St. Elizabeth's Medical Center, priority 1998, dated 2002)

Tested on: rat pineal
Test: Rat pineal levels of NAS and melatonin after systemic administration
Details: preliminary experiments

SMILES | rat pineal level of NAS | rat pineal level of melatonin
CCC(=O)NCCc1c[nH]c2ccc(OCc3ccccc3)cc12 [CA-15, N-[2-(5-Benzyloxyindol-3-yl)ethyl]propanamide] | did not change | did not change
CCCC(=O)NCCc1c[nH]c2ccc(OCc3ccccc3)cc12 [CA-18, N-[2-(5-Benzyloxyindol-3-yl)ethyl] butanamide] | did not change | did not change
